Measurements reported in PubChem BioAssay (NCATS).
Inconclusive means that the source gave no clear call. Such entries were picked first, then a sample of the others. Potencies of inconclusive entries are doubtful fits and often do not repeat. Activity calls are given as the source filed them. Calls come from the whole dose curve; as a rule, active = well fitted cell-killing curve with a large enough effect; inconclusive = small, poorly fitted or top-dose-only effect, or effect the other way; inactive = no such curve, though single readings can be large or run the other way.

Assay: Quantitative High-Throughput drug screen in 47 multiple myeloma cell lines against the NCATS MIPE library collection: KMM1_JCRB cell viability assay (AID 1918960); note: nearly all actives have a fitted effect of over 30% in size
Settings: KMM1 myeloma viability, CellTiter-Glo ATP luminescence, 48 h; viability (% of DMSO): at 45.8 µM (top of the series)
Outline: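 Myeloma cells at 500 per well in 1536-well format treated with MIPE 4.0 library by pin transfer for 48 h at 37C, 5% CO2. Viability from ATP luminescence (CellTiter-Glo), normalized to DMSO (100%) and media-only (0%) wells.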
Potency is the fitted concentration of half-maximal effect.

Compound	viability (% of DMSO)	Potency
CON=C(C(=O)N[C@@H]1C(=O)N2C(C(=O)O)=C(CSC(=O)c3ccco3)CS[C@H]12)c1csc(N)n1	inactive: 113%	
CC[C@H](C)C(=O)O[C@H]1C[C@@H](C)C=C2C=C[C@H](C)[C@H](CC[C@@H]3C[C@@H](O)CC(=O)O3)[C@H]21	inactive: 89.1%	
Clc1ccc(C2(c3ccc(-c4cn[nH]c4)cc3)CCNCC2)cc1		inconclusive: 23.5 µM [cytotoxic, single point]
CSc1cccc(Nc2ncc3cc(-c4c(Cl)cccc4Cl)c(=O)n(C)c3n2)c1		active: 0.059 µM
COc1ccc(-c2ccc3cc(C(=O)O)ccc3c2)cc1C12CC3CC(CC(C3)C1)C2	inactive: 121%	
CN1CCN(c2c(F)cc3c(=O)c(C(=O)O)cn(CCF)c3c2F)CC1	inactive: 87.7%	
COc1nc(C)cnc1NS(=O)(=O)c1cccnc1-c1ccc(-c2nnco2)cc1		inconclusive: 0.0023 µM [rising, full curve, poor fit]
OC[C@H](Cc1ccccc1)Nc1nc(Oc2ccc3c(c2)CCC3)nc2c1ncn2Cc1ccc(-c2ccccc2)cc1		inconclusive: 14.8 µM [cytotoxic, partial curve]
CCc1nc(-c2cccc(C)c2)c(-c2ccnc(NC(=O)c3ccccc3)c2)s1		inconclusive: 16.6 µM [cytotoxic, partial curve]
CC(C)(S)[C@@H](N)C(=O)O		inconclusive: 0.059 µM [rising, full curve, poor fit]
COc1ccc2nc(S(=O)Cc3ncc(C)c(OC)c3C)[nH]c2c1 (stereo unspecified)		inconclusive: 20.9 µM [cytotoxic, partial curve]

Among those listed so far, two have a carbonyl joined to an NH by a bond outside any ring:
Compound	viability (% of DMSO)	Potency
CON=C(C(=O)N[C@@H]1C(=O)N2C(C(=O)O)=C(CSC(=O)c3ccco3)CS[C@H]12)c1csc(N)n1	inactive: 113%	
CCc1nc(-c2cccc(C)c2)c(-c2ccnc(NC(=O)c3ccccc3)c2)s1		inconclusive: 16.6 µM [cytotoxic, partial curve]
